Source: patent US20240424125A1
These are yes or no findings as the source states them, for the method shown.

Target: T1, COL6A2 isoform 2C2A (human) (UniProt P12110)
T1 sequence (looked up): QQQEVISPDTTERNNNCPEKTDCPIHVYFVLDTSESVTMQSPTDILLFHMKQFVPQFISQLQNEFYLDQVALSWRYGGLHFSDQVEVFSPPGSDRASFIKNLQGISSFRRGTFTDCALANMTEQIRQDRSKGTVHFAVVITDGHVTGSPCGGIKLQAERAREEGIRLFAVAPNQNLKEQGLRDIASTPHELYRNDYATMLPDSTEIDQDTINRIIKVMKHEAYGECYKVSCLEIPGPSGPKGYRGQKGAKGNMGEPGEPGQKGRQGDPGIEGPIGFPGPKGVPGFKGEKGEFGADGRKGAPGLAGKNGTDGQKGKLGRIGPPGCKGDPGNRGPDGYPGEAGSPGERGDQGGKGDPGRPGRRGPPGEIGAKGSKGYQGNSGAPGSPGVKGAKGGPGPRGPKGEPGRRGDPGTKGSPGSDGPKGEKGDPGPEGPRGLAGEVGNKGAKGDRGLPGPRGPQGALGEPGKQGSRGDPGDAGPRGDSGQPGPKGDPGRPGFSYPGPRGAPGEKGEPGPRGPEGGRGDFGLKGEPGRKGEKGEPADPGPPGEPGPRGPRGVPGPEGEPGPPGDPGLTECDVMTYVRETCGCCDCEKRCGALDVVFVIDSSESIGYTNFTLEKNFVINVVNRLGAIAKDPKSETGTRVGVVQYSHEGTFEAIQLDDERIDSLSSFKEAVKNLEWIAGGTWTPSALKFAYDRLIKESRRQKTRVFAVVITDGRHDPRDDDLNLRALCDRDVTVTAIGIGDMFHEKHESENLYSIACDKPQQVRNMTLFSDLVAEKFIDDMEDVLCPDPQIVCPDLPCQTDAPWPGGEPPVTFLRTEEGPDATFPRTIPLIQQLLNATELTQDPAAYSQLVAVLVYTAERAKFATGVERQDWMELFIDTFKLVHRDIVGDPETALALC
Assay: Retrogenix cell microarray, live cell confirmation screen; live cell screen

binding: no binding (tested: 5 µg/mL)
B1: v35356 (antibody, human IgG1, kappa, V domains shown)
VH: EVQLLESGGGLVQPGGSLRLSCAVSGFSLSSYGVSWVRQAPGKGLEWIGAVNSGGSAYYADSFKGRSTISRDNSKNTVYLQMNSLRAEDTAVYYCARSGSGYPMDYHPIWGQGTLVTVSS
VL: DYQMTQSPSSVSASVGDRVTITCRASQSIGDWLAWYQQKPGKAPKLLIYEASTLASGVPSRFSGSGSGTDFTLTISSVQPEDAATYYCQQGYGRWHILNIFGGGTKVEVKR
